Values of other authors, collected in patent US9513288B2, “Isoform-selective inhibitors and activators of PDE3 cyclic nucleotide phosphodiesterases” (The United States of America, as represented by the …, priority 2001, dated 2016).
Some entries share one result that the patent states for a list of compounds.

Conditions: long-term administration, dilated cardiomyopathy (Nony et al., 1994); cited from earlier work

SMILES: Nc1cc(-c2ccncc2)c[nH]c1=O [amrinone]
- increase in mortality: up to 40%
